Consider 33 compounds from PubChem BioAssay AID256 (DTP/NCI, 2004).

The subject of this assay is CD2F1 mice, L1210 leukemia ip, survival T/C. As to the kind of experiment: NCI In Vivo Anticancer Drug Screen. Data for tumor model L1210 Leukemia (intraperitoneal) in CD2F1 (CDF1) mice. The following applies: higher T/C = longer survival. An outline of the steps:
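Implant tumor; dose compound or vehicle; measure endpoint in both groups; report treated divided by control.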

Setting [1] is: T/C endpoint: mean survival time, dose: 100.0 mg/kg/injection, schedule: Q04DX002 (ip), vehicle: other.
Where [2] appears, read: T/C endpoint: mean survival time, dose: 200.0 mg/kg/injection, schedule: Q04DX002 (ip), vehicle: other.
The mark [3] stands for this setting: T/C endpoint: mean survival time, dose: 400.0 mg/kg/injection, schedule: Q04DX002 (ip), vehicle: other.
Where [4] appears, read: T/C endpoint: mean survival time, dose: 400.0 mg/kg/injection, schedule: Q04DX003 (ip), vehicle: saline with Tween-80.
[5] abbreviates: T/C endpoint: mean survival time, dose: 200.0 mg/kg/injection, schedule: Q04DX003 (ip), vehicle: saline with Tween-80.
[6] abbreviates: T/C endpoint: mean survival time, dose: 300.0 mg/kg/injection, schedule: Q01DX001 (ip), vehicle: saline.
[7] abbreviates: T/C endpoint: mean survival time, dose: 100.0 mg/kg/injection, schedule: Q01DX009 (ip), vehicle: saline with Tween-80.
The mark [8] stands for this setting: T/C endpoint: mean survival time, dose: 400.0 mg/kg/injection, schedule: Q01DX009 (ip), vehicle: saline with Tween-80.
[9] abbreviates: T/C endpoint: mean survival time, dose: 100.0 mg/kg/injection, schedule: Q04DX003 (ip), vehicle: saline with Tween-80.
[10] abbreviates: T/C endpoint: mean survival time, dose: 75.0 mg/kg/injection, schedule: Q01DX009 (ip), vehicle: Klucel (hydroxypropylcellulose) (HPC).

The list shows only some results of the screen, not a fair sample: it gathers tests that were run many times, whatever their T/C, doses with no T/C, and many T/C values between a quarter and a half above the control. Further doses and runs are listed elsewhere. T/C: endpoint of the treated group in % of that of the vehicle group. Some doses have a count of surviving animals in place of a T/C: the source holds a T/C of zero for them, seemingly a mark for toxic or unscored doses. Some survivor counts are full or nearly so, which does not show that the dose was tolerated: survival well below the control is almost never listed, so the zero probably covers shortened survival too. Counts of survivors are from the toxicity check (mostly the fifth day) where no day follows; animals may have died later. Schedule codes are those of the source, taken here to give the interval after Q, in days (D) or hours (H), and the number of doses after X. Some entries hold several experiments; their values stand side by side, smallest first. For survival time, the PubChem record calls one and a half times the control and up active, and a quarter to a half above the control has no call in these data; cut-offs in other NCI protocols can differ. Counts like (3×) count equal records among those shown. Some T/C values are followed by the survivors on the day toxicity was checked, most often the fifth; without a count, all were alive then.

For the compound `O=C1C=CC(=O)c2c(Cl)ccc(O)c21`, the survivor count (T/C endpoint: mean survival time, dose: 25.0 mg/kg/injection, schedule: Q04DX002 (ip), vehicle: other) is recorded as 0 of 3; the survivor count (T/C endpoint: mean survival time, dose: 50.0 mg/kg/injection, schedule: Q04DX002 (ip), vehicle: other) is listed as 0 of 3; the survivor count under setting [1] is listed as 0 of 3; the survivor count under setting [2] was 0 of 3; the survivor count under setting [3] was 0 of 3.
With `C=C(C)[C@H]1CN[C@H](C(=O)O)[C@H]1CC(=O)O`, the survivor count by setting is: (T/C endpoint: mean survival time, dose: 10.0 mg/kg/injection, schedule: Q01DX001 (ip), vehicle: saline) 2 of 6; (T/C endpoint: mean survival time, dose: 20.0 mg/kg/injection, schedule: Q01DX001 (ip), vehicle: saline) 1 of 6; (T/C endpoint: mean survival time, dose: 40.0 mg/kg/injection, schedule: Q01DX001 (ip), vehicle: saline) 1 of 6; (T/C endpoint: mean survival time, dose: 80.0 mg/kg/injection, schedule: Q01DX001 (ip), vehicle: saline) 0 of 6; (T/C endpoint: median survival time, dose: 100.0 mg/kg/injection, schedule: Q01DX009 (ip), vehicle: saline) 0 of 6.
As to `Cl/C=C\C[N+]12CN3CN(CN(C3)C1)C2`, the survivor count reads like this: (T/C endpoint: mean survival time, dose: 200.0 mg/kg/injection, schedule: Q04DX003 (ip), vehicle: saline) 2 of 6; (T/C endpoint: mean survival time, dose: 400.0 mg/kg/injection, schedule: Q04DX003 (ip), vehicle: saline) 0 of 6.
Take `COc1cc2ccc(CC(=S)N3CCOCC3)cc2cc1OC`: under setting [4], the survivor count is on record as 6 of 6.
Regarding `Cc1nc(N)[nH]c(=O)c1CCS`, where the note is “T/C endpoint: mean survival time, dose: 400.0 mg/kg/injection, schedule: Q01DX001 (ip), vehicle: saline”, the survivor count is given as 3 of 6.
`COc1cc(/C=N\NC(=O)CC#N)cc(OC)c1OC`: the survivor count under setting [4] was 2 of 6.
Turning to `CNCCOc1ccc(Cl)cc1`, the survivor count is, setting by setting: under setting [5], 0 of 6; under setting [4], 0 of 6.
In the case of `c1ccc2c(c1)OP(OP1Oc3ccccc3O1)O2`, the survivor count (T/C endpoint: mean survival time, dose: 200.0 mg/kg/injection, schedule: Q04DX003 (ip), vehicle: acetone) is given as 3 of 6 and the survivor count (T/C endpoint: mean survival time, dose: 400.0 mg/kg/injection, schedule: Q04DX003 (ip), vehicle: acetone) is listed as 0 of 6.
In the case of `Cc1cc(SCc2ccccc2)cc(C)[o+]1`, the survivor count under setting [6] was 0 of 6.
Turning to `O=C1NC(=O)C(=Cc2cc3c(cc2Br)OCO3)C(=O)N1`, the survivor count (T/C endpoint: mean survival time, dose: 400.0 mg/kg/injection, schedule: Q01DX009 (ip), vehicle: Klucel (hydroxypropylcellulose) (HPC)) is 0 of 6.
`Cc1c(C)c(C)c(CN2CCC(C)CC2)c(C)c1C`: the survivor count under setting [7] is 3 of 3 and 6 of 6.
As to `CC(=O)OC1C(O)C(OC(=O)c2ccccc2)C(OC(C)=O)C(OC(C)=O)C1OC(C)=O` (configuration not stated), the survivor count (T/C endpoint: mean survival time, dose: 100.0 mg/kg/injection, schedule: Q01DX009 (ip), vehicle: Klucel (hydroxypropylcellulose) (HPC)) is listed as 6 of 6.
`O=C1C=CC(=O)N1c1cccc(N2C(=O)C=CC2=O)c1`: under “T/C endpoint: mean survival time, dose: 16.0 mg/kg/injection, schedule: Q01DX009 (ip), vehicle: saline”, the survivor count was 0 of 6.
Take `N=C(N)N`: the survivor count under setting [4] is recorded as 0 of 6.
With `CCCCC(C)(O)CC` (configuration not stated), the survivor count under setting [8] is listed as 1 of 6.
For the compound `Nc1cnc(/C=C/c2ccccc2)nc1`, the survivor count (T/C endpoint: mean survival time, dose: 300.0 mg/kg/injection, schedule: Q01DX001 (ip), vehicle: other) was 0 of 6.
As to `OCNC(=S)c1c(Cl)cccc1Cl`, the survivor count under setting [8] was 3 of 6.
Turning to `CC1CCC2CCCCC2[N-]1.CC1CCC2CCCCC2[N-]1.[Cl][Pt+2][Cl]` (configuration not stated), the survivor count under setting [5] was 4 of 4.
`C[N+](C)(C)/N=C\c1cccc2ccccc12`: the survivor count (T/C endpoint: mean survival time, dose: 50.0 mg/kg/injection, schedule: Q01DX009 (ip), vehicle: saline with Tween-80) is on record as 0 of 3; the survivor count under setting [7] is listed as 0 of 3; the survivor count (T/C endpoint: mean survival time, dose: 200.0 mg/kg/injection, schedule: Q01DX009 (ip), vehicle: saline with Tween-80) is listed as 0 of 3.
For the compound `C[S+]1C=C(c2ccccc2)C=C(c2ccccc2)C1` (configuration not stated), the survivor count is 2 of 6 (T/C endpoint: mean survival time, dose: 15.0 mg/kg/injection, schedule: Q01DX001 (ip), vehicle: saline with Tween-80) and 0 of 6 (T/C endpoint: mean survival time, dose: 30.0 mg/kg/injection, schedule: Q01DX001 (ip), vehicle: saline with Tween-80).
`CCOC(=O)C1C2CC(O)C(O)CC21` (configuration not stated): the survivor count is 3 of 3 (T/C endpoint: median survival time, dose: 100.0 mg/kg/injection, schedule: Q04DX003 (ip), vehicle: saline with Tween-80) and 3 of 3 (T/C endpoint: median survival time, dose: 200.0 mg/kg/injection, schedule: Q04DX003 (ip), vehicle: saline with Tween-80).
Consider `O=C(COc1ccc(Cl)c(Cl)c1)Nc1ccc[n+](Cc2ccccc2)c1`, for which the survivor count is on record as 3 of 6 under setting [9], 0 of 6 under setting [5] and 0 of 6 under setting [4].
Regarding `N#CC(c1cccnc1)N1CCOCC1` (configuration not stated), the survivor count runs as follows: under setting [7], 1 of 3; (T/C endpoint: mean survival time, dose: 100.0 mg/kg/injection, schedule: Q04DX002 (ip), vehicle: saline with Tween-80) 3 of 3; (T/C endpoint: mean survival time, dose: 200.0 mg/kg/injection, schedule: Q04DX002 (ip), vehicle: saline with Tween-80) 0 of 3; (T/C endpoint: mean survival time, dose: 400.0 mg/kg/injection, schedule: Q04DX002 (ip), vehicle: saline with Tween-80) 0 of 3.
As to `CCCCCCCCCCCCCCCCCC(=O)NN`, under setting [8], the T/C was 130 and 141 % of control.
Consider `CN(C)N=Nc1ccccc1C(=O)NC#N`, for which the T/C is 103, 113, 116, 121 % of control (T/C endpoint: mean survival time, dose: 18.75 mg/kg/injection, schedule: Q01DX009 (ip), vehicle: Klucel (hydroxypropylcellulose) (HPC)); 118, 125 (2×), 128 % of control (T/C endpoint: mean survival time, dose: 37.5 mg/kg/injection, schedule: Q01DX009 (ip), vehicle: Klucel (hydroxypropylcellulose) (HPC)); 110 and 114 % of control [5 of 6 alive] under setting [10]. The survivor count runs as follows: under setting [10], 0 of 6 and 3 of 6; (T/C endpoint: mean survival time, dose: 150.0 mg/kg/injection, schedule: Q01DX009 (ip), vehicle: Klucel (hydroxypropylcellulose) (HPC)) 0 of 6; (T/C endpoint: mean survival time, dose: 300.0 mg/kg/injection, schedule: Q01DX009 (ip), vehicle: Klucel (hydroxypropylcellulose) (HPC)) 0 of 6.
As for `COc1ccc(OC)c(NC(=O)NNc2ccc([N+](=O)[O-])cc2[N+](=O)[O-])c1`, under setting [8], the survivor count was 4 of 6.
`CCCCN=C=C(c1ccccc1)c1ccccc1`: the survivor count is 1 of 3 under setting [1], 3 of 3 under setting [2] and 1 of 3 under setting [3].
With `CC(=O)OC/C=C(C)/C=C/C=C(C)/C=C/C1=C(C)CCCC1(C)C`, under “T/C endpoint: mean survival time, dose: 1600.0 mg/kg/injection, schedule: Q01DX009 (ip), vehicle: steroid suspending solution”, the survivor count was 3 of 6.
For the compound `Nc1ccn([C@H]2C[C@@H](CO)[C@H](O)[C@@H]2O)c(=O)n1`, the T/C runs as follows: (T/C endpoint: mean survival time, dose: 100.0 mg/kg/injection, schedule: Q01DX009 (ip), vehicle: saline) 136 % of control; (T/C endpoint: mean survival time, dose: 300.0 mg/kg/injection, schedule: Q01DX009 (ip), vehicle: saline) 149 % of control.
For the compound `Cn1ccc(CON)n1`, the survivor count (T/C endpoint: mean survival time, dose: 400.0 mg/kg/injection, schedule: Q01DX009 (ip), vehicle: saline) was 1 of 6.
For `CC(C)=CC[P+](C)(c1ccccc1)c1ccccc1`, the survivor count is reported as 0 of 3 (T/C endpoint: mean survival time, dose: 6.25 mg/kg/injection, schedule: Q04DX003 (ip), vehicle: saline); 0 of 3 (T/C endpoint: mean survival time, dose: 12.5 mg/kg/injection, schedule: Q04DX003 (ip), vehicle: saline); 0 of 3 (T/C endpoint: mean survival time, dose: 25.0 mg/kg/injection, schedule: Q04DX003 (ip), vehicle: saline); 0 of 3 under setting [9]; 0 of 3 under setting [5]; 0 of 3 under setting [4].
Take `CCC(=O)OC1=CC(=O)c2ccccc2C1=O`: under setting [6], the survivor count is 3 of 6.
For the compound `O=S1(=O)CC23C=CC=CC2(CCCC3)C1Cl` (configuration not stated), the survivor count is listed as 5 of 6 (T/C endpoint: mean survival time, dose: 200.0 mg/kg/injection, schedule: Q04DX003 (ip), vehicle: other) and 3 of 6 (T/C endpoint: mean survival time, dose: 400.0 mg/kg/injection, schedule: Q04DX003 (ip), vehicle: other).
